The assay is described as follows: qHTS Assay for Lipid Storage Modulators in Drosophila S3 Cells.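 On cell number change: cells counted by Cell Tracker Red CMTPX staining in the red channel.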 The conditions noted are these: BODIPY lipid droplet fluorescence, 18-24 h; for cell number change: measured here: cell count max response, cells fed with added oleic acid. The method, boiled down: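 Laser-scanning cytometry quantifies lipid droplet accumulation (500–530 nm total intensity; droplet/cell object ratio) in oleic acid-fed (400 uM added) Drosophila S3 cells treated with a concentration series. 20 uM Triacsin C defined 100% inhibition.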
For orientation: In qHTS, concentration-response curves come from the screen itself.

The mark [1] stands for this setting: measured here: lipid fluorescence (Fed channel) AC50, cells fed with added oleic acid.
Where [2] appears, read: measured here: cell number channel AC50, cells fed with added oleic acid.

Results on 63 molecules are retold here after PubChem BioAssay AID2685 (National Center for Advancing Translational Sciences (NCATS), 2010).

The list shows a part of the results. Further columns of the screen follow, without active or inactive calls. The list favours compounds with an active or inconclusive main result. Potencies come from curve fits of mixed quality, noted in brackets.

On to `CC(=O)c1c(C)nc2ccc(Br)cc2c1C(=O)O`, for which the cell number change is -0.395%. In addition, the AC50 (commonly the midpoint of the concentration-response curve, whichever way the signal moves) under setting [1] is 2.59 µM [falling, partial curve]. In the case of `CC(NC(=O)c1sc2ccccc2c1Cl)C1CCCO1` (stereo not given), the cell number change was -39.8%. Besides, the AC50 under setting [2] was 29.1 µM [falling, single point]. With `O=[N+]([O-])c1cc(C(F)(F)F)ccc1Cl`, the cell number change is -1.81%. The AC50 under setting [1] was 0.184 µM [rising, full curve]. Take `C=CCn1c(=O)c(C(=O)Nc2ccccc2OC)c(O)c2ccccc21`: the cell number change amounted to 57%. Further, the half-maximal activity concentration (AC50) under setting [2] is 5.17 µM [rising, full curve]. The AC50 under setting [1] is 2.31 µM [rising, single point]. With `C[C@@H]1CN(C(=O)c2nc3ccc(Cl)cn3c2CN[C@H]2CCCCNC2=O)C[C@H](C)O1`, the cell number change came out at 17.2%. Take `COc1ccc(CCNC(=O)CCCn2c(SCC#N)nc3ccccc3c2=O)cc1OC`: the cell number change was -4.77%.

Take `COc1ccc(/C=N/NC(=O)c2nc(-c3ccccc3)cc(-c3ccccc3)n2)cc1O`: the cell number change is -1.67%.

For the molecule `COc1ccc(N2CCN(C(=O)COc3ccc4c(C)c(C)c(=O)oc4c3C)CC2)cc1`, the cell number change came out at 71.6%. In addition, the AC50 under setting [2] is 11.6 µM [rising, partial curve]. Moreover, under setting [1], the AC50 is 1.84 µM [rising, full curve, poor fit].

Turning to `Cc1cc(=O)n(CC(C)C)c(O)c1C#N`, the cell number change is -74.3%. Further, the concentration at half-maximal activity (AC50) under setting [2] was 16.4 µM [falling, partial curve]. Besides, the half-maximal activity concentration (AC50) under setting [1] is 20.6 µM [falling, single point]. `COc1ccc(S(=O)(=O)N2CCN(c3ccc4nnc(-c5ccc(F)cc5)n4n3)CC2)cc1`: the cell number change is 11.4%. Under setting [2], the AC50 is 0.206 µM [rising, full curve, poor fit].

Regarding `O=C(COC(=O)CCC(=O)c1cccs1)NC1CCCCC1`, the cell number change is 18.4%. In addition, the concentration at half-maximal activity (AC50) under setting [1] was 23.1 µM [rising, partial curve]. For `CCn1c(=O)cc(SCC(=O)N2CCN(C)CC2)c2ccccc21`, the AC50 under setting [1] was 6.51 µM [rising, single point]. With `COc1ccc(S(=O)(=O)N2CCCOC2CNC(=O)C(=O)NCCCn2ccnc2)cc1OC` (stereo not given), the cell number change was -28.1%. The AC50 under setting [1] was 16.4 µM [falling, single point].

For the molecule `COC(=O)c1c(C(=O)c2ccc(Br)cc2)n(C)c2ccccc12`, the cell number change is -5%. Regarding `Cc1ccc(NC(=O)CCOc2ccccc2)cc1S(=O)(=O)Nc1ccccc1Cl`, the cell number change was 6.58%. Further, the half-maximal activity concentration (AC50) under setting [1] was 6.51 µM [rising, single point].

Turning to `COc1cc(C2N(Cc3ccccc3)CCN2Cc2ccccc2)ccc1OC(C)=O`, the cell number change came out at 36.5%. Besides, the AC50 under setting [2] was 29.1 µM [rising, single point]. For `Cc1nnc(SCc2cc(=O)n3[nH]cnc3n2)s1`, the cell number change was -25.4%. The AC50 under setting [2] was 2.31 µM [falling, full curve, poor fit]. The AC50 under setting [1] is 2.06 µM [falling, full curve]. As for `COc1ccccc1OCC(=O)NCCSCc1ccccc1Cl`, the cell number change is 107%. In addition, under setting [2], the AC50 is 6.51 µM [falling, partial curve]. Moreover, the AC50 under setting [1] is 6.51 µM [falling, partial curve]. Turning to `Cc1ccc(-n2c(C)cc(C)c(C#N)c2=O)cc1`, the cell number change is -0.167%. Besides, the AC50 under setting [1] is 18.4 µM [falling, single point]. In the case of `CCOCCCNC(=O)CCNS(=O)(=O)c1ccc(C)cc1`, the cell number change is -162%. Moreover, the AC50 under setting [2] is 20.6 µM [falling, partial curve]. Under setting [1], the AC50 is 20.6 µM [falling, partial curve]. For `COc1ccc(NC(=O)CSc2nc3c(c(=O)n2-c2ccc(F)cc2)SCC3)cc1`, under setting [1], the AC50 is 29.1 µM [rising, single point]. For the molecule `CCOC(=O)c1cc2occc2n1Cc1ccc(F)cc1`, the cell number change was -6.96%. Also, under setting [2], the AC50 is 0.326 µM [falling, single point].

As for `Cc1cccc(NC(=O)CSc2nsc(SCC(=O)Nc3cccc(C)c3)c2C#N)c1`, under setting [1], the AC50 was 32.6 µM [falling, single point]. With `Cc1cnc(C(=O)Nc2ccccc2F)cn1`, the cell number change is -141%. Further, under setting [2], the half-maximal activity concentration (AC50) was 29.1 µM [falling, single point]. In the case of `CCC(NC(=O)c1cc(COc2c(F)cccc2F)on1)c1ccncc1` (stereo not given), the cell number change was 23.4%. Besides, the AC50 under setting [2] is 0.184 µM [rising, full curve, poor fit]. Also, the concentration at half-maximal activity (AC50) under setting [1] was 0.58 µM [rising, single point]. Take `COc1nccc(Nc2ccccc2)c1C#N`: the cell number change was -14.5%. Also, the AC50 under setting [2] was 0.651 µM [falling, full curve, poor fit]. For the molecule `CCOC(=O)C1CCN(C(=O)CSc2nnc(-c3ccco3)n2-c2ccccc2)CC1`, the cell number change was determined as 25.9%.

With `Cc1cc(C)cc(NS(=O)(=O)c2cc(C(=O)NCc3ccccn3)ccc2Cl)c1`, the cell number change was determined as 19.9%. For the same molecule, the AC50 under setting [1] was 0.231 µM [rising, full curve, poor fit]. As for `CC(C)N(Cc1ccccc1)C(=S)NC(=O)C1(C)CC1(Cl)Cl` (stereo not given), the cell number change came to 18.9%. In addition, the AC50 under setting [2] is 0.291 µM [rising, partial curve, poor fit].

Turning to `CCc1nn(CCCC(=O)N2CCC(C)CC2)c(=O)c2cc3occc3n12`, the AC50 under setting [1] was 2.31 µM [falling, full curve]. With `COc1ccc(CCC(=O)Nc2cccc(S(=O)(=O)N3CCCCCC3)c2)cc1OC`, the cell number change was -8.28%. Besides, the AC50 under setting [2] is 0.259 µM [falling, partial curve, poor fit]. With `COc1cc(OC)c(C#N)c(S(=O)(=O)Cc2ccccc2)c1`, the cell number change was -4.75%. The AC50 under setting [1] was 11.6 µM [falling, single point]. As to `COC(=O)c1ccc(COc2ccc(C3C4=C(CCCC4=O)Nc4onc(C)c43)cc2)cc1` (stereo not given), the AC50 under setting [2] was 6.51 µM [rising, partial curve, poor fit]. `Cc1ccccc1Cn1cc(NC(=O)c2noc3c2CC(C(C)(C)C)CC3)cn1` (stereo not given): the cell number change was -25.3%. Also, the AC50 under setting [2] was 3.26 µM [falling, full curve, poor fit]. The AC50 under setting [1] was 29.1 µM [falling, partial curve, poor fit]. `O=C(O)CSc1nc2ccccc2o1`: the cell number change came out at 1.58%.

Take `CCN(C(=O)COC(=O)CNC(=O)c1ccc(F)cc1)C1CCS(=O)(=O)C1` (stereo not given): the cell number change is 36.6%. Also, the AC50 under setting [2] is 6.51 µM [falling, partial curve, poor fit]. Also, the AC50 under setting [1] was 2.91 µM [falling, single point].

Turning to `CSc1ccc(CN2CCC(Oc3ccc(C(=O)N4CCCC4)cc3)CC2)cc1`, the cell number change is -7.65%. As for `CC(C)CNC(=O)C1CCN(c2ccc(S(=O)(=O)N3CCOCC3)cc2Cl)CC1`, the cell number change is 2.67%. For the same molecule, the AC50 under setting [1] is 0.92 µM [falling, full curve, poor fit]. For `O=C(NN1C(=O)/C(=C/c2cc([N+](=O)[O-])ccc2O)SC1=S)c1ccccc1O`, the AC50 under setting [1] is 18.4 µM [rising, partial curve, poor fit]. With `COc1ccc(S(=O)(=O)N(C)C)cc1NCC(=O)Nc1cccc(C#N)c1`, the cell number change came to 27.6%.

Turning to `Cc1ccc(C)c(S(=O)(=O)NC2CCSC2=O)c1` (stereo not given), the cell number change came to 2.81%. As to `Cc1nnc(N=c2ssnc2Cl)o1`, the cell number change is -54.7%. Moreover, the AC50 under setting [2] was 8.2 µM [falling, partial curve, poor fit]. With `COC(=O)C1=NN(C(=O)c2cccc(Cl)c2)C(O)(C(C)(C)C)C1` (stereo not given), the cell number change stood at 14.1%. Also, the AC50 under setting [1] was 7.31 µM [rising, partial curve, poor fit].

For `Cc1onc(-c2c(F)cccc2Cl)c1C(=O)NC1CC1`, the AC50 under setting [1] was 29.1 µM [rising, single point]. As for `COCCNC(=O)Cn1cc2c(n1)CCC(C)C2` (stereo not given), the cell number change was determined as 9.06%. Under setting [1], the half-maximal activity concentration (AC50) is 29.1 µM [rising, single point]. Consider `CC(NC(=O)c1ccccc1SCC(=O)N1CCCC1)c1ccccc1` (stereo not given), for which the cell number change was -15.6%. In addition, under setting [1], the AC50 is 0.00461 µM [falling, full curve, poor fit]. Take `COc1ccc(NC(=O)C2CCN(S(=O)(=O)c3ccc(N4CCCC4=O)cc3)CC2)cc1OC`: the cell number change stood at 4.25%. `Cc1noc(C)c1CSCC(=O)Nc1ccc(S(C)(=O)=O)cc1`: the cell number change was -26.9%. In addition, the AC50 under setting [1] was 29.1 µM [falling, single point]. With `NC(=O)c1cc(S(=O)(=O)N2CCOCC2)ccc1N1CCCC1`, the cell number change was found to be 14.4%. Besides, the AC50 under setting [2] was 3.26 µM [rising, partial curve]. Besides, the AC50 under setting [1] was 6.51 µM [rising, partial curve, poor fit]. Consider `CC1(C)CC2CC(C)(CN2C(=O)COC(=O)c2n[nH]c(=O)c3ccccc23)C1` (stereo not given), for which the cell number change was -26.7%. Turning to `CCc1cc(C(=O)Cc2ccc(F)cc2)c(O)cc1O`, the cell number change is -62.3%. Besides, the AC50 under setting [2] is 13 µM [falling, partial curve]. Besides, the AC50 under setting [1] is 13 µM [falling, partial curve].

As to `CC(=O)c1ccc(S(=O)(=O)N2CCc3ccccc3C2)cc1`, the cell number change is 7.04%. For the molecule `CN1C(=O)/C(=C2\SC(=S)N(CCCCCC(=O)O)C2=O)c2ccccc21`, the cell number change was -17.8%. Also, the AC50 under setting [1] was 11.6 µM [falling, partial curve].

`COc1cccc(-c2nc(CS(=O)(=O)CC(=O)Nc3ccc(C(C)=O)cc3)c(C)o2)c1`: the cell number change is -12.4%. Besides, under setting [1], the AC50 is 6.51 µM [rising, single point]. In the case of `CC1=NN(C(N)=S)C(=O)C1N=Nc1ccc(Br)cc1` (stereo not given), the cell number change is -29.4%. Besides, under setting [1], the AC50 is 5.8 µM [falling, full curve]. Regarding `CC(C)(C)CN1CCN(Cc2cccnc2)CC1CCO` (stereo not given), the cell number change was found to be 20.1%. Besides, the AC50 under setting [1] is 0.13 µM [rising, full curve, poor fit]. Turning to `CCCCOc1ccc(C(=O)N2CCN(CC(=O)Nc3ccc(C)cc3)CC2)cc1OC`, the concentration at half-maximal activity (AC50) under setting [1] was 0.103 µM [falling, full curve, poor fit].

Turning to `O=C(NCc1ccc(F)cc1)c1ccc(CS(=O)(=O)Cc2ccc(F)cc2)o1`, the cell number change was -27.7%.

For the molecule `Brc1ccccc1OCCCN1CCCC1`, the cell number change is -1.57%. Moreover, under setting [1], the AC50 is 6.51 µM [falling, single point].

In the case of `Cc1cc(C)n(-c2ccc(C(=O)NC3=NCCS3)cc2)n1`, the cell number change is -24.7%. Further, the half-maximal activity concentration (AC50) under setting [1] was 0.00517 µM [rising, full curve, poor fit].

Turning to `COc1ccc(NC(=O)Nc2ccc(N3CCCC3=O)cc2)cc1OC`, the cell number change worked out at 34.8%. Also, under setting [2], the AC50 was 3.26 µM [rising, single point].

Take `CCOc1ccc(S(=O)(=O)Nc2cc(F)ccc2F)c2cccnc12`: the cell number change came out at 10.8%. With `Cc1ccc(NC(=O)COC(=O)CCC(=O)c2cccs2)cc1S(=O)(=O)N1CCOCC1`, the cell number change came to 8.64%. Moreover, the AC50 under setting [2] is 0.00517 µM [rising, full curve, poor fit].
